Source: PubChem BioAssay AID1963582 (Tox21, 2024).

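A p53-responsive beta-lactamase reporter in HCT-116 cells; the FRET signal ratio is read after 16 hours of exposure.
Percent activation at the highest tested concentration, scaled so that 0 is no effect and 100 is the full control effect; higher values mean stronger activation.
Calls are based on the whole dose curve, and inconclusive means weak or mixed curves.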

Values are in %.
Every entry below has the call inconclusive.
Only part of the assay is shown, chiefly results filed as inconclusive.
An entry listed twice with the same setting is a separate test.

structure,condition,activation (%)
CC(C)(c1cc(Br)c(O)c(Br)c1)c1cc(Br)c(O)c(Br)c1,at 66 µM (top of the series),10.29
Oc1ccc(O)cc1,at 66 µM (top of the series),11.88
CCc1oc2ccccc2c1C(=O)c1cc(I)c(O)c(I)c1,at 30.3 µM (top of the series),8.524
COc1cc(C(=O)NC2CCN(C)CC2)ccc1Nc1ncc2c(n1)N(C1CCCC1)CC(F)(F)C(=O)N2C,at 66 µM (top of the series),6.091
C=CCOC(Cn1ccnc1)c1ccc(Cl)cc1Cl (centres undefined),at 66 µM (top of the series),27.84
C=CC(=O)OCCCCCCOC(=O)C=C,at 66 µM (top of the series),5.688
OCCN1CCN(CCCN2c3ccccc3Sc3ccc(C(F)(F)F)cc32)CC1,at 30.3 µM (top of the series),0.8351
CC(=O)S[C@@H]1CC2=CC(=O)CC[C@]2(C)[C@H]2CC[C@@]3(C)[C@@H](CC[C@@]34CCC(=O)O4)[C@H]12,at 66 µM (top of the series),14.67
C[C@]12C/C(=C/O)C(=O)C[C@@H]1CC[C@@H]1[C@@H]2CC[C@@]2(C)[C@H]1CC[C@]2(C)O,at 30.3 µM (top of the series),6.666
CN1CCc2cc3c(cc2C1O)OCO3 (centres undefined),at 66 µM (top of the series),7.836
Oc1c(Cl)c(Cl)cc(Cl)c1Cl,at 66 µM (top of the series),30
CO[C@@H]1[C@@H](OC)[C@H](C)[C@@](O)(CC(=O)O)O[C@H]1[C@H](C)[C@H]1O[C@@]2(CC[C@@](C)([C@H]3CC[C@@](C)([C@@H]4O[C@@H]([C@H]5O[C@](C)(O)[C@H](C)C[C@@H]5C)C[C@@H]4OC4C[C@H](OC)[C@@H](OC)[C@H](C)O4)O3)O2)C[C@H](O)[C@H]1C (some centres undefined),at 30.3 µM (top of the series),6.65
CCN=c1cc2oc3cc(NCC)c(C)cc3c(-c3ccccc3C(=O)OCC)c-2cc1C,at 66 µM (top of the series),1.448
Oc1c(Cl)cc(Cl)c2cccnc12,at 30.3 µM (top of the series),17.9
CN1CCCN(C(c2ccccc2)c2ccc(Cl)cc2)CC1 (centres undefined),at 30.3 µM (top of the series),6.957
CC/C(=C(/CC)c1ccc(O)cc1)c1ccc(O)cc1,at 66 µM (top of the series),7.323
CCc1nc(N)nc(N)c1-c1ccc(Cl)cc1,at 66 µM (top of the series),10.81
CC(C)=CCNc1ncnc2c1ncn2[C@@H]1O[C@H](CO)[C@@H](O)[C@H]1O,at 30.3 µM (top of the series),14.11
C=CC(=O)OCCCCCCOC(=O)C=C,at 66 µM (top of the series),5.472
CC1=C(/C=C/C(C)=C/C=C/C(C)=C/C(=O)O)C(C)(C)CCC1,at 66 µM (top of the series),18.82
CN(C)c1ccc(C(=C2C=CC(=[N+](C)C)C=C2)c2ccc(N(C)C)cc2)cc1,at 66 µM (top of the series),-0.3578
O=C(Nc1ccc(Cl)c(Cl)c1)c1cc(Cl)cc(Cl)c1O,at 66 µM (top of the series),13.52
CCc1nc(N)nc(N)c1-c1ccc(Cl)cc1,at 66 µM (top of the series),12.71
CCOC(=O)Nc1ccc(NCc2ccc(F)cc2)nc1N,at 30.3 µM (top of the series),16.72
CCOC(=O)C(O)(c1ccc(Cl)cc1)c1ccc(Cl)cc1,at 66 µM (top of the series),8.408
Nc1ccc(N)c2c1C(=O)c1ccccc1C2=O,at 66 µM (top of the series),24.15
N#Cc1c(Cl)c(Cl)c(Cl)c(C#N)c1Cl,at 66 µM (top of the series),13.93
O=C1OC(O)C(C(Cl)Cl)=C1Cl (centres undefined),at 66 µM (top of the series),-13.26
COC(=O)C1=C(C)NC(COC(N)=O)=C(C(=O)OC(C)C)C1c1cccc(Cl)c1Cl (centres undefined),at 30.3 µM (top of the series),7.584
Oc1c(Cl)c(Cl)c(Cl)c(Cl)c1Cl,at 66 µM (top of the series),5.019
CC[C@H](c1ccc(O)cc1)[C@@H](CC)c1ccc(O)cc1,at 30.3 µM (top of the series),-4.969
CC(C)CCCCCCCOP(=O)(Oc1ccccc1)Oc1ccccc1,at 66 µM (top of the series),16.66
CC/C(=C(/CC)c1ccc(O)cc1)c1ccc(O)cc1,at 30.3 µM (top of the series),0.8002
O=C(O)CCCc1ccc(N(CCCl)CCCl)cc1,at 30.3 µM (top of the series),17.43